These are yes or no findings as the source states them, for the method shown. Binding seen in cells or lysates may run through a third protein. Some results given as binding are weak or reduced against the parent protein; the word gives no strength. For some assays here: Where a sequence is shown, tags or fusion partners need not be part of it. Blank lines part the entries; values can stand above or below the molecule they belong to.
How the values were obtained:
[1] = target: estrogen receptor ERβ, BRET fusion (pCMX-YFP-ERβ) (UniProt Q92731); test: FRET or BRET; BRET in living HEK293 cells co-transfected with ERα-RLuc + YFP-ERβ, ERα-RLuc + ERα-YFP or RLuc-ERβ + YFP-ERβ; cells in PBS incubated 1 hour with angolensin (R) (1 nM to 10 µM tested; below 1 µM the ratios were as with vehicle); coelenterazine h 5 µM
[2] = target: T1, estrogen receptor ERβ, BRET fusion (pCMX-YFP-ERβ), Q92731; test: FRET or BRET; BRET in living HEK293 cells co-transfected with ERα-RLuc + YFP-ERβ, ERα-RLuc + ERα-YFP or RLuc-ERβ + YFP-ERβ; cells in PBS incubated 1 hour with cosmosiin (1 nM to 10 µM tested; below 1 µM the ratios were as with vehicle); coelenterazine h 5 µM; details: remark: other sources report otherwise
T1 chain: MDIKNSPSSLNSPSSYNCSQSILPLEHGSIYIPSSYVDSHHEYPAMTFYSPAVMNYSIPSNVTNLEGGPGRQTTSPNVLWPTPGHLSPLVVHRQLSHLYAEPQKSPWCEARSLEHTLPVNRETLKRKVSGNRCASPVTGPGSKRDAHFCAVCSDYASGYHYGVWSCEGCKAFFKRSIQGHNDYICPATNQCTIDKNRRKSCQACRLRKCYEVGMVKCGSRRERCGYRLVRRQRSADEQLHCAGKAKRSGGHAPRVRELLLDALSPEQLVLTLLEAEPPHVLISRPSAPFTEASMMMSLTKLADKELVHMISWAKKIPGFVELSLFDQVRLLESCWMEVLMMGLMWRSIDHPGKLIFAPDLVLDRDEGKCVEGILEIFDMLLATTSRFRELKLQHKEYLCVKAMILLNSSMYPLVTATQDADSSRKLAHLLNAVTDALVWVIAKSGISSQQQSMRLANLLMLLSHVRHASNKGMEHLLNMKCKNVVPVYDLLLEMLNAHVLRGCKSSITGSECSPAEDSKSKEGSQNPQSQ

Molecule: estrogen receptor ERβ, BRET fusion (pCMX-YFP-ERβ) (from UniProt Q92731 1-530)
- binding [1]: no binding (condition: with angolensin (1 µM and 10 µM))

- binding [2]: binds
B1: estrogen receptor ERβ, BRET fusion (pCMX-YFP-ERβ), Q92731 1-530 (receptor)
chain: T1 chain

Reference: paper PMC3274540 (PLoS ONE, 2012)
